HELM strings list residues between dots; [ac] is acetyl, [am] amide, other brackets name non-standard units.
Experiment: general procedure: Fmoc solid-phase peptide synthesis; Wang resin; DCC or DIPCDI/HOBt or HBTU/DIEA and PyBOP/DIEA
Settings: whole synthesis

Row | Substance | crude mass | isolated mass | final HPLC purity (analytical HPLC)
1 | Met-Saa4-Tyr-Leu | 209 mg | 86 mg | 
2 | PEPTIDE1{L.M.[Saa4].T.Y.L.K}$$$$V2.0 | 264 mg |  | 
3 | Leu-Met-Saa4-Tyr-Leu-Lys | 825 mg |  | 
4 | PEPTIDE1{L.M.Y.[Saa4].Y.L.K}$$$$V2.0 | 998 mg |  | 
5 | PEPTIDE1{M.[Saa1].Y.L}$$$$V2.0 | 302 mg | 203 mg | >95%
6 | Leu-Met-Tyr-Saa2-Thr-Tyr-Leu-Lys | 600 mg |  | 

From patent US7060678B2 (Dabur Research Foundation, priority 2003, dated 2006)
